This assay is described as follows: qHTS Assay for Lipid Storage Modulators in Drosophila S3 Cells.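 For cell number change: cells counted by Cell Tracker Red CMTPX staining in the red channel.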 Conditions: BODIPY lipid droplet fluorescence, 18-24 h; for cell number change: measured here: cell count max response, cells fed with added oleic acid. The essentials:
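Drosophila S3 cells loaded with oleic acid (400 uM, as added) and compounds at several concentrations; lipid droplets imaged by 488-nm laser-scanning cytometry, 500–530 nm intensity and object ratio to cell channel. Percent activity normalized to 20 uM Triacsin C.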
(In general: qHTS replaces the single test concentration by a dilution series.)

Setting [1] is: measured here: lipid fluorescence (Fed channel) AC50, cells fed with added oleic acid.
Where [2] appears, read: measured here: cell number channel AC50, cells fed with added oleic acid.

Some of the results follow. Shown are side measurements of this screen, not its main read-out; they come without a call. Compounds called inactive in the main read-out are mostly missing here. Potencies come from curve fits of mixed quality, noted in brackets.

What is called AC50 is the concentration at which the activity in the assay is half-maximal. A lower AC50 goes with greater potency.

Regarding `CC(=O)c1cccc(NC(=O)CSc2nc(=O)n(CCN3CCOCC3)c3c2CCCC3)c1`, the cell number change is -4.95%. Besides, the AC50 under setting [1] is 29.1 µM [falling, single point].
Consider `O=C(O)c1ccc2c(=O)n3c(nc2c1)/C(=C/c1ccc(F)cc1)CC3`, for which the cell number change turned out to be 13%. Also, the AC50 under setting [1] is 2.06 µM [rising, partial curve].
On to `O=C(N/N=C/c1ccc(F)cc1)c1cc(-c2ccco2)nc2ccccc12`, for which the cell number change is -21.1%. In addition, the AC50 under setting [1] is 3.26 µM [falling, single point].
With `COc1ccc(Cl)cc1NC(=O)CSc1nc(NS(=O)(=O)c2ccc(C)cc2)cc(=O)[nH]1`, under setting [1], the concentration at half-maximal activity (AC50) was 0.13 µM [falling, single point].
For `O=C(NCc1ccccn1)c1cn(CCc2ccccc2)nn1`, the cell number change is -27.8%. For the same molecule, under setting [1], the AC50 is 29.1 µM [falling, single point].
Regarding `O=C(Nc1ccncc1)C1CCN(S(=O)(=O)c2cccs2)CC1`, the cell number change worked out at 54.8%. Also, under setting [2], the AC50 was 32.6 µM [rising, partial curve, poor fit].
With `Cc1cc2c(cc1S(=O)(=O)N1CCCC1)n(C)c(=O)c(=O)n2C`, the cell number change was 7.78%. Further, the AC50 under setting [1] was 0.92 µM [falling, full curve].
Take `O=C(Nc1cccc(C(F)(F)F)c1)c1cc(-c2ccc(F)cc2)on1`: the cell number change is -19.9%. Moreover, the AC50 under setting [1] is 0.82 µM [falling, single point].
As for `O=C(Cn1c2[n+](c3ccc(C(F)(F)F)cc31)CCCCC2)Nc1c(F)cccc1F`, the cell number change is -19.4%.
With `CCCCOc1ccc(Br)cc1CSC(=N)N`, the cell number change is -16.3%. Moreover, under setting [2], the AC50 was 0.164 µM [falling, full curve, poor fit]. In addition, the AC50 under setting [1] is 5.17 µM [falling, partial curve].
Turning to `COC(=O)Nc1cccn(Cc2c(Cl)cccc2Cl)c1=O`, the cell number change was -9.98%. Under setting [1], the AC50 was 0.291 µM [falling, full curve, poor fit].
Regarding `COc1ccc(N(Cc2ccccc2)S(=O)(=O)c2cc(C(=O)O)ccc2Cl)cc1`, the cell number change is 35.2%. In addition, under setting [2], the AC50 was 6.51 µM [rising, full curve, poor fit].
Take `CC1CCCCN1C(=O)C1CCN(c2nc(-c3ccccc3)nc3c2CCC3)CC1` (stereo not drawn): the cell number change was -36.7%. Further, the AC50 under setting [2] was 14.6 µM [falling, partial curve, poor fit]. Besides, the AC50 under setting [1] was 10.3 µM [falling, partial curve].
With `Cc1c(CCOC(=O)C23CC4CC(CC(C4)C2)C3)sc[n+]1CC#N`, the cell number change was -16.8%. The AC50 under setting [1] was 7.31 µM [falling, partial curve, poor fit].
Take `CCNc1nc(NC(C)C)nc(N(C#N)CCOc2ccc(Cl)cc2Cl)n1`: the cell number change was -4.8%. For the same molecule, the AC50 under setting [1] is 1.3 µM [rising, partial curve].
On to `COc1ccc(OC)c(NC(=O)/C=C/c2ccccc2[N+](=O)[O-])c1`, for which the cell number change is 6.43%. Moreover, the AC50 under setting [1] is 29.1 µM [falling, single point].
As for `CC(C(=O)c1ccccc1)[n+]1cccc(C(N)=O)c1` (stereo not drawn), the cell number change is 4.63%. Besides, the AC50 under setting [1] is 0.184 µM [falling, full curve, poor fit].
On to `CCOc1ccc(OCc2ccc(C(=O)O)o2)cc1`, for which the cell number change worked out at 19.4%. The AC50 under setting [1] is 3.66 µM [falling, full curve].
For the molecule `CC1(C)CC(=O)C(C=NC(CCC(N)=O)C(=O)O)=C(O)C1` (stereo not drawn), the cell number change is -32.8%. Further, the AC50 under setting [2] is 1.64 µM [falling, full curve]. For the same molecule, the AC50 under setting [1] is 2.59 µM [falling, full curve].
Regarding `CC(C)c1ncc(S(=O)(=O)c2ccc(C(F)(F)F)cn2)c(N)n1`, the cell number change is -37.3%. Moreover, the AC50 under setting [2] is 29.1 µM [falling, single point]. The AC50 under setting [1] is 32.6 µM [falling, single point].
As for `Cc1ccc(S(=O)(=O)NCCC(=O)Nc2cc(F)ccc2C)cc1C`, the cell number change worked out at 6.67%. The AC50 under setting [1] was 29.1 µM [rising, single point].
As to `O=C(Cc1ccc(S(=O)(=O)N2CCOCC2)s1)NC1CCCCC1`, the cell number change came to 2.63%. Besides, the AC50 under setting [1] was 20.6 µM [rising, partial curve, poor fit].
`CCOc1ccc(Cl)cc1S(=O)(=O)n1cnc2cc(C)c(C)cc21`: the cell number change worked out at 72.6%. Besides, the AC50 under setting [2] was 23.1 µM [rising, single point].
Take `CCCC[C@H](CC(=O)c1ccccc1)[C@@H](OC(C)=O)C(=O)Oc1c(C(C)C)cccc1C(C)C`: the cell number change was found to be 5.24%. Besides, the AC50 under setting [1] was 8.2 µM [falling, single point].
As for `OCc1c[nH]c2ccccc12`, the cell number change was 15.6%. Also, the AC50 under setting [1] is 4.61 µM [rising, full curve].
Turning to `O=C(CCCc1ccccc1)Nc1cccnc1`, the cell number change was found to be 74.3%. Under setting [2], the AC50 was 20.6 µM [rising, partial curve].
Turning to `O=[N+]([O-])c1ccc(N/N=C\c2cccn2-c2ccccc2)nc1`, under setting [1], the AC50 is 20.6 µM [falling, single point].
In the case of `CCOc1ccc(-n2nnc3c(=O)n(CC(=O)NCc4ccco4)cnc32)cc1`, the cell number change was determined as 52.9%. In addition, the AC50 under setting [2] is 11.6 µM [rising, partial curve, poor fit]. In addition, the AC50 under setting [1] is 20.6 µM [rising, single point].
Regarding `O=C1CN(C(=O)COc2ccc(Cl)cc2Cl)c2ccccc2N1`, the cell number change stood at 29.5%. The AC50 under setting [1] was 5.17 µM [rising, single point].
In the case of `CCOc1ccc(NC(=S)c2ccc3ccccc3n2)cc1`, the cell number change was -14%. Besides, the AC50 under setting [1] was 18.4 µM [falling, single point].
Consider `O=C(COC(=O)c1ccc(O)cc1O)NC(=O)NCc1ccccc1`, for which the cell number change was -23.6%. The AC50 under setting [1] is 0.58 µM [rising, single point].
In the case of `CCOC(=O)c1c(C)[nH]c(C(=O)OCC(=O)Nc2ccc(Cl)cn2)c1C`, the cell number change is 13.8%.
Take `Cc1cc(C)c(NC(=O)CNC(=O)c2ccccc2OCc2c(C)noc2C)c(C)c1`: the cell number change was 23%. Moreover, under setting [1], the AC50 is 5.8 µM [rising, partial curve].
Regarding `CC(NC(=O)c1ccc2ccccc2n1)c1ccccc1` (stereo not drawn), the cell number change was -15.4%.
As to `COc1cccc(C2C(=O)c3ccccc3C2=O)c1`, the cell number change was -46.9%. Besides, the AC50 under setting [2] was 29.1 µM [falling, single point]. Besides, the AC50 under setting [1] was 29.1 µM [falling, single point].
For the molecule `Cc1nc(Cl)cc(N/N=C/c2ccccc2)n1`, the cell number change turned out to be 11%. Also, under setting [1], the AC50 is 29.1 µM [rising, single point].
Take `CCCNC(=O)CN(c1ccc(F)cc1)S(=O)(=O)c1ccc2c(c1)OCCO2`: the cell number change is 12.9%. Moreover, under setting [1], the concentration at half-maximal activity (AC50) is 29.1 µM [falling, single point].
`CC(C)C[C@H](NC(=O)N1CCCCCC1)C(=O)O`: the cell number change is -17.8%. Besides, the AC50 under setting [2] is 6.51 µM [rising, single point].
As to `COc1ccc(NC(C)C(=O)N/N=C/c2c(O)ccc3ccccc23)cc1` (stereo not drawn), the cell number change was 4.96%. Besides, the AC50 under setting [1] was 20.6 µM [falling, single point].
Take `CCC(=O)N(C)CCc1cc2c(c(OC)c1/C=N/NC(=O)c1ccc(Br)cc1)OCO2`: the cell number change was -0.803%.
Take `CCOc1ccc(-c2cn(CCC#N)cn2)cc1`: the cell number change amounted to 78.4%. Further, the AC50 under setting [2] is 8.2 µM [rising, partial curve]. Further, the AC50 under setting [1] was 0.146 µM [falling, full curve, poor fit].
As for `CC(=O)Nc1ccc(NC(=O)COC(=O)c2ccc(C)s2)cc1`, the cell number change came out at 7.71%. For the same molecule, the AC50 under setting [1] was 0.00517 µM [falling, full curve, poor fit].
For `CCCCNCCOCCOc1ccc(C)cc1Br`, the cell number change is -9.57%. Also, the AC50 under setting [1] was 5.8 µM [rising, full curve].
For the molecule `CNc1ccc([N+](=O)[O-])cc1`, the cell number change came out at 1.24%. Also, the AC50 under setting [1] was 0.146 µM [falling, full curve].
As to `CCCCCCN1CC(=O)N2[C@@H](Cc3c([nH]c4ccccc34)C2(C)C)C1=O`, the cell number change is -39.5%. Moreover, the AC50 under setting [2] is 25.9 µM [falling, single point]. In addition, under setting [1], the AC50 is 29.1 µM [falling, single point].
For `CCCCOP(=O)(c1ccc(N(C)C)cc1)C(O)c1ccncc1` (stereo not drawn), the cell number change is 46.2%. In addition, the AC50 under setting [2] is 14.6 µM [rising, partial curve, poor fit]. Besides, under setting [1], the AC50 was 29.1 µM [rising, single point].
For the molecule `Cn1ccc2cc(-c3ccc4ncnc(NCc5cccs5)c4c3)ccc21`, the cell number change is -14%. Moreover, under setting [1], the AC50 was 32.6 µM [falling, single point].
`CC(C)N1CCC2(CC1)Oc1ccc(Br)cc1C1CC(c3cccnc3)=NN12` (stereo not drawn): the cell number change was -2.43%. The AC50 under setting [1] is 0.092 µM [rising, full curve, poor fit].
Regarding `COc1ccccc1CNC(=O)Cn1c(=O)oc2cc(Cl)ccc21`, the cell number change worked out at 23.8%. For the same molecule, under setting [1], the AC50 was 6.51 µM [rising, single point].
Regarding `CC1(CC(=O)N/N=C/c2cc([N+](=O)[O-])c(O)cc2O)OCCO1`, the cell number change is -37.1%. Besides, the AC50 under setting [2] is 0.13 µM [falling, full curve]. For the same molecule, under setting [1], the AC50 was 0.00461 µM [falling, full curve, poor fit].
`COc1ccc(S(=O)(=O)N2CCN(c3c(C)cccc3C)CC2)cc1OC`: the cell number change is -24.5%.
With `COCc1cc(C)nc2sc(C(=O)N3CCN(c4ccccc4)CC3)c(N)c12`, the cell number change was 31.6%. For the same molecule, the AC50 under setting [2] was 0.58 µM [rising, single point]. Besides, the AC50 under setting [1] is 0.461 µM [rising, single point].
As to `CCOC(=O)CON1C(=O)C(=O)N(OCC(=O)OCC)[C@H]2CCCC[C@H]21`, the cell number change is -27.2%. For the same molecule, under setting [1], the AC50 was 29.1 µM [falling, single point].
On to `O=c1ccc2[n+]([O-])c3ccc(O)cc3oc-2c1`, for which the cell number change was -65.6%. Besides, the AC50 under setting [2] is 4.61 µM [falling, full curve]. Moreover, the AC50 under setting [1] was 3.66 µM [falling, full curve].
On to `Cc1ccc(N(CC(=O)NC2CCCC2)C(=O)CCC(=O)Nc2nccs2)c(C)c1`, for which the cell number change is -6.94%.
With `CCN(CCCNC(=O)c1nn(C)c2c1CS(=O)(=O)c1ccccc1-2)Cc1ccccc1`, the cell number change is 31.6%. Further, under setting [2], the AC50 is 29.1 µM [rising, single point]. In addition, under setting [1], the AC50 was 25.9 µM [rising, single point].
For the molecule `COc1ccc(C2CCCN2C(=S)Nc2ccccc2C)cc1OC` (stereo not drawn), the cell number change is -2.15%. Besides, under setting [2], the concentration at half-maximal activity (AC50) was 0.651 µM [falling, single point]. Besides, the AC50 under setting [1] was 0.651 µM [falling, single point].
With `COc1ccccc1OCC(=O)Nc1cccc(-c2nc3ccccc3o2)c1`, the cell number change was -59.1%. For the same molecule, under setting [2], the AC50 was 29.1 µM [falling, single point]. Under setting [1], the AC50 was 1.03 µM [rising, partial curve].

(Values after PubChem BioAssay AID2685 (National Center for Advancing Translational Sciences (NCATS), 2010).)
